Data from the supplement of paper PMC8728848.
The list shows a part of the results.

Experiments:
Assay in all cases: glycan array binding signal (z-score within array); higher = stronger binding
Settings in all cases: glycan notation: IUPAC condensed, linker removed
[1] = target: GlcNAc(b1-4)GlcNAc(b1-4)GlcNAc(b1-4)GlcNAc(b1-4)GlcNAc(b1-4)GlcNAc
Summary of the method: (§1)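 Glycan array data were curated from 3228 arrays in the Consortium for Functional Glycomics database and kept only where the protein sequence was available. Glycan names were converted to IUPAC-condensed notation, and columns mapping to the same glycan were averaged. The binding signal is a within-array Z-score, averaged across arrays of the same protein sequence at different concentrations or buffers and across linkers. Negative Z-scores can be read as non-binding.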

[2] = target: GlcNAc(b1-4)[GlcNAc(b1-6)]GalNAc
Summary of the method: as §1

[3] = target: GlcNAc(b1-6)Gal(b1-4)GlcNAc
Summary of the method: as §1

GlcNAc(b1-6)GalNAc = target: GlcNAc(b1-6)GalNAc
Summary of the method: as §1

[4] = target: GlcNAc6S(b1-3)Gal(b1-4)GlcNAc
Summary of the method: as §1

Kdn(a2-3)Gal(b1-3)GalNAc = target: Kdn(a2-3)Gal(b1-3)GalNAc
Summary of the method: as §1

Kdn(a2-3)Gal(b1-3)GlcNAc = target: Kdn(a2-3)Gal(b1-3)GlcNAc
Summary of the method: as §1

Kdn(a2-3)Gal(b1-4)Glc = target: Kdn(a2-3)Gal(b1-4)Glc
Summary of the method: as §1

Kdn(a2-3)Gal(b1-4)GlcNAc = target: Kdn(a2-3)Gal(b1-4)GlcNAc
Summary of the method: as §1

[5] = target: Kdn(a2-3)Gal(b1-4)[Fuc(a1-3)]GlcNAc
Summary of the method: as §1

Kdn(a2-6)Gal(b1-4)GlcNAc = target: Kdn(a2-6)Gal(b1-4)GlcNAc
Summary of the method: as §1

[6] = target: Man(a1-2)Man(a1-2)Man(a1-3)Man
Summary of the method: as §1

[7] = target: Man(a1-2)Man(a1-2)Man(a1-6)[Man(a1-3)]Man
Summary of the method: as §1

Man(a1-2)Man(a1-3)Man = target: Man(a1-2)Man(a1-3)Man
Summary of the method: as §1

[8] = target: Man(a1-2)Man(a1-3)[Man(a1-2)Man(a1-6)]Man
Summary of the method: as §1

[9] = target: Man(a1-2)Man(a1-3)[Man(a1-2)Man(a1-6)]Man(a1-6)[Man(a1-2)Man(a1-2)Man(a1-3)]Man
Summary of the method: as §1

[10] = target: Man(a1-2)Man(a1-3)[Man(a1-2)Man(a1-6)]Man(a1-6)[Man(a1-2)Man(a1-2)Man(a1-3)]Man(b1-4)GlcNAc(b1-4)GlcNAc
Summary of the method: as §1

[11] = target: Man(a1-2)Man(a1-3)[Man(a1-6)]Man(a1-6)[Man(a1-2)Man(a1-3)]Man(b1-4)GlcNAc(b1-4)GlcNAc
Summary of the method: as §1

[12] = target: Man(a1-2)Man(a1-6)[Man(a1-3)]Man(a1-6)[Man(a1-2)Man(a1-2)Man(a1-3)]Man
Summary of the method: as §1

[13] = target: Man(a1-2)Man(a1-6)[Man(a1-3)]Man(a1-6)[Man(a1-2)Man(a1-2)Man(a1-3)]Man(b1-4)GlcNAc(b1-4)GlcNAc
Summary of the method: as §1

Man(a1-3)[Man(a1-6)]Man = target: Man(a1-3)[Man(a1-6)]Man
Summary of the method: as §1

[14] = target: Man(a1-3)[Man(a1-6)]Man(a1-6)[Man(a1-2)Man(a1-3)]Man(b1-4)GlcNAc(b1-4)GlcNAc
Summary of the method: as §1

[15] = target: Man(a1-3)[Man(a1-6)]Man(a1-6)[Man(a1-3)]Man
Summary of the method: as §1

[16] = target: Man(a1-3)[Man(a1-6)]Man(a1-6)[Man(a1-3)]Man(b1-4)GlcNAc(b1-4)GlcNAc
Summary of the method: as §1

[17] = target: Man(a1-3)[Man(a1-6)]Man(b1-4)GlcNAc(b1-4)GlcNAc
Summary of the method: as §1

[18] = target: Man(a1-3)[Man(a1-6)]Man(b1-4)GlcNAc(b1-4)[Fuc(a1-6)]GlcNAc
Summary of the method: as §1

Man(a1-6)Man = target: Man(a1-6)Man
Summary of the method: as §1

Man(b1-4)GlcNAc = target: Man(b1-4)GlcNAc
Summary of the method: as §1

MurNAc(b1-4)GlcNAc = target: MurNAc(b1-4)GlcNAc
Summary of the method: as §1

Neu5Ac(a2-3)Gal = target: Neu5Ac(a2-3)Gal
Summary of the method: as §1

[19] = target: Neu5Ac(a2-3)Gal(b1-3)GalNAc
Summary of the method: as §1

[20] = target: Neu5Ac(a2-3)Gal(b1-3)GalNAc(b1-3)Gal(a1-4)Gal(b1-4)Glc
Summary of the method: as §1

[21] = target: Neu5Ac(a2-3)Gal(b1-3)GalNAc(b1-4)[Neu5Ac(a2-3)]Gal(b1-4)Glc
Summary of the method: as §1

[22] = target: Neu5Ac(a2-3)Gal(b1-3)GalNAc(b1-4)[Neu5Ac(a2-8)Neu5Ac(a2-3)]Gal(b1-4)Glc
Summary of the method: as §1

[23] = target: Neu5Ac(a2-3)Gal(b1-3)GalNAc6S
Summary of the method: as §1

[24] = target: Neu5Ac(a2-3)Gal(b1-3)GlcNAc
Summary of the method: as §1

[25] = target: Neu5Ac(a2-3)Gal(b1-3)GlcNAc(b1-2)Man
Summary of the method: as §1

[26] = target: Neu5Ac(a2-3)Gal(b1-3)GlcNAc(b1-2)Man(a1-3)[GlcNAc(b1-4)][Neu5Ac(a2-3)Gal(b1-3)GlcNAc(b1-2)Man(a1-6)]Man(b1-4)GlcNAc(b1-4)GlcNAc
Summary of the method: as §1

[27] = target: Neu5Ac(a2-3)Gal(b1-3)GlcNAc(b1-2)Man(a1-3)[Neu5Ac(a2-3)Gal(b1-3)GlcNAc(b1-2)Man(a1-6)]Man(b1-4)GlcNAc(b1-4)GlcNAc
Summary of the method: as §1

[28] = target: Neu5Ac(a2-3)Gal(b1-3)GlcNAc(b1-3)Gal(b1-3)GlcNAc
Summary of the method: as §1

[29] = target: Neu5Ac(a2-3)Gal(b1-3)GlcNAc(b1-3)Gal(b1-4)GlcNAc
Summary of the method: as §1

[30] = target: Neu5Ac(a2-3)Gal(b1-3)GlcNAc(b1-3)GalNAc
Summary of the method: as §1

[31] = target: Neu5Ac(a2-3)Gal(b1-3)GlcNAc(b1-4)Gal(b1-4)Glc
Summary of the method: as §1

[32] = target: Neu5Ac(a2-3)Gal(b1-3)GlcNAc(b1-6)GalNAc
Summary of the method: as §1

[33] = target: Neu5Ac(a2-3)Gal(b1-3)GlcNAc6S
Summary of the method: as §1

B1: GS7807Q-bfa-507-19-507 (Bacteroides fragilis) (protein)
chain: ASCNKFDDLNTNPDAATKVTAPMLATKLILNITQQGSAKNFVYHSMLSKQIAWSENASDEQYNLFGRTDFDGYTILTNCQKMVDAANEGDKDSYAALAKFMKAYKLFYKSLEVGDIPYSDALKGEEGVQKPKYDTQKEVMRQVLEDLEEAYTLFSSGSDFDGDPIFGGDTENWKKTVVAFELKVLTHLCKKDTDADLKVKERFARLVSSGSLMTSNADNFQLVYSNKAGQLYPFYYTQNKHSDYLMMSSVIIDNLKKFNDYRMFYYASPAKAQTDKGIKDSEWDAYLSIDPSDSYSNISVLYGKGEFCLANLRYTRVPEGEPLMRLSYAEQNFILAEGAVRGWISEDASTYYKKGIEASMNFIADNTPDKEEYTHGRTITQEYIQEYLAQPVIQLSGDKEKDLEMILLQRYLASFLQHPYDAYYDYRRTGYPVLPINPSTNLNTEKNKIPTRWMYPEAEFSYNPDNANEAVQRQYNGSDDVNKLMWILQ
glycan array binding signal (z-score) [1]: -1.34 | glycan array binding signal (z-score) [2]: -0.53 | glycan array binding signal (z-score) [3]: -0.107 | glycan array binding signal (z-score) (GlcNAc(b1-6)GalNAc): -0.934 | glycan array binding signal (z-score) [4]: 0.015 | glycan array binding signal (z-score) (Kdn(a2-3)Gal(b1-3)GalNAc): -0.248 | glycan array binding signal (z-score) (Kdn(a2-3)Gal(b1-3)GlcNAc): -0.924 | glycan array binding signal (z-score) (Kdn(a2-3)Gal(b1-4)Glc): -0.249 | glycan array binding signal (z-score) (Kdn(a2-3)Gal(b1-4)GlcNAc): -0.296 | glycan array binding signal (z-score) [5]: -0.442 | glycan array binding signal (z-score) (Kdn(a2-6)Gal(b1-4)GlcNAc): -1.08 | glycan array binding signal (z-score) [6]: -0.16 | glycan array binding signal (z-score) [7]: -0.117 | glycan array binding signal (z-score) (Man(a1-2)Man(a1-3)Man): -0.863 | glycan array binding signal (z-score) [8]: -0.176 | glycan array binding signal (z-score) [9]: -0.894 | glycan array binding signal (z-score) [10]: 0.366 | glycan array binding signal (z-score) [11]: -0.639 | glycan array binding signal (z-score) [12]: 0.113 | glycan array binding signal (z-score) [13]: 0.121 | glycan array binding signal (z-score) (Man(a1-3)[Man(a1-6)]Man): -0.364 | glycan array binding signal (z-score) [14]: -0.891 | glycan array binding signal (z-score) [15]: 0.132 | glycan array binding signal (z-score) [16]: 0.145 | glycan array binding signal (z-score) [17]: -0.902 | glycan array binding signal (z-score) [18]: -0.263 | glycan array binding signal (z-score) (Man(a1-6)Man): 0.531 | glycan array binding signal (z-score) (Man(b1-4)GlcNAc): 0.276 | glycan array binding signal (z-score) (MurNAc(b1-4)GlcNAc): -1.36 | glycan array binding signal (z-score) (Neu5Ac(a2-3)Gal): -0.287 | glycan array binding signal (z-score) [19]: -0.825 | glycan array binding signal (z-score) [20]: -1.07 | glycan array binding signal (z-score) [21]: -0.316 | glycan array binding signal (z-score) [22]: 1.34 | glycan array binding signal (z-score) [23]: -0.574 | glycan array binding signal (z-score) [24]: -0.614 | glycan array binding signal (z-score) [25]: 0.998 | glycan array binding signal (z-score) [26]: 0.307 | glycan array binding signal (z-score) [27]: 0.236 | glycan array binding signal (z-score) [28]: -0.26 | glycan array binding signal (z-score) [29]: 0.014 | glycan array binding signal (z-score) [30]: -0.574 | glycan array binding signal (z-score) [31]: -0.746 | glycan array binding signal (z-score) [32]: -0.038 | glycan array binding signal (z-score) [33]: -0.963
